According to PubChem BioAssay AID1347426 (Functional Genomics Laboratory (NCATS/FGL), 2020):
In all, about 31,000 sequences went through this assay and about 1,400 (4.5%) were called active.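 Rule for the calls: active = median seed-adjusted z-score above 1 or below -1; inactive = the rest.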 The list shows a part of the results.

Assay: Novel Modifiers of Survival Motor Neuron (SMN) Protein: Gene Identification via Genome-wide siRNA Screen;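 note: luminescence tracks full-length SMN protein made from the SMN2 reporter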
Conditions: HEK293T SMN2-luciferase reporter, siRNA knockdown, 72 h; actives lie on both sides
Method in brief: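 Steps: spot 1 pmol siRNA, add Lipofectamine RNAiMax in serum-free DMEM, seed HEK293T SMN2–luciferase reporter cells; incubate 72 h at 37 °C; add ONE-Glo; normalize luminescence to control siRNA, log10, MAD. Candidates: |MAD| > 1.0.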

Sequence | median seed-adjusted z-score
CACCUUAAAUGGGAGGGAATT against DIO3 | inactive: 0.0911
GCCUUGAUCAAGUAACAGATT against PARD6B | inactive: 0.315
GAACAAGAGUGUGAUGUGATT against ARG1 | inactive: -0.108
CCACGACAGUUAUGUCCGATT against BLVRB | inactive: 0.0133
GACUCUCGGAAAGAACAAATT against GABRA3 | inactive: -0.281
GGGAAGAUCCUGUACAUCUTT against PER2 | inactive: -0.113
GGCUCAAGGGCUUUGCUGATT against ADSSL1 | inactive: 0.0976
AGGUGUACUUAGACCUGGATT against CHRNB1 | inactive: 0.16
AGAAUUUCCCUGACCUGGATT against CALY | inactive: 0.216
CCCGGAAUGUGACAAAGGATT against RNPS1 | inactive: 0
GGCUGCCUAUAGACAGGAATT against GFAP | inactive: -0.312
CAAGGGUCCAGUUUCAGUCTT against ZNF655 | inactive: -0.156
GGAUGAGAGUCGAAUCUCUTT against AMPH | inactive: -0.725
CCCGCAAGCUUAAAACCCATT against SNRK | inactive: 0.463
GAGCAUACUGUGGAUAAAATT against CA2 | inactive: 0.328
GAAGCACCUUAAAAAGAGUTT against DTX1 | inactive: -0.0757
GUAAGAAUGCUGAAGAGUUTT against UBE2L3 | inactive: 0.378
CUGAUGUUAUUGACAAUGATT against PAICS | inactive: -0.725
GGAAAUCCUACUACCGAAATT against RBAK | inactive: 0
CGUCCAUCACGGAAACAUUTT against KCNMB2 | inactive: 0
AGUAUUUAAUGAAACCCUATT against FUT4 | inactive: -0.24
CCAUCCCAGGUCGAACAUATT against DHX8 | inactive: -0.251
CCAAAGAUCAUACAUGGAATT against CASP3 | inactive: -0.874

Sequence | median seed-adjusted z-score
CAUGGGUACUGGGUCCUCATT against BTNL8 | inactive: 0.0508
GCAAACAAGUGAUAGUGAUTT against RBM11 | inactive: -0.0341
GAUGAAUCAUUAUUCGUGATT against AOX1 | inactive: -0.0717
GCCUAUAGCUCCAACCAGATT against HNF1B | inactive: -0.609
CGAAUAGACUUAAUGGACATT against KLHL8 | inactive: -0.835
CAUGUAACCAUCAAACUGATT against EPM2A | inactive: 0.319
GGUGUUGUUUCAUCGUUUUTT against CCNL1 | active: -1.26
GAUUGUCACUAUUCAGAGATT against DFNB31 | inactive: -0.233
GGAAGGUUCAUAUCACAAATT against ADCY1 | inactive: 0.154
CAAAAGAUGCUCAUGCUUUTT against MRPL39 | inactive: 0.355
GAUCAAGCCUGGGAUGACATT against METAP2 | inactive: 0.325
CCGUCUACAUCUGCACGGATT against XRCC3 | inactive: 0.332
GGGCUUACCUUGGAUGUCATT against LBXCOR1 | inactive: 0.0938
CCAGAAGCGAAUCACCACATT against POLR2F | active: -3.52
GGCACUAUUUCAUUAGUUUTT against GPR39 | inactive: 0.0998
GCAAGAGGGUUGUAUAUUUTT against DUSP28 | inactive: 0
GACUAUAAACAGUACGUGUTT against FLOT2 | inactive: 0.961
GCUGCGACCAGUUCAUUGATT against ABLIM2 | inactive: -0.26
AGACCAUCCUAUACUGUGATT against KDELR2 | inactive: 0
CAAGAAGUCUGAAAACCCUTT against WBSCR22 | inactive: -0.21
GCUCCACCACGGAGAUUGATT against KCNH6 | inactive: 0.424
CGGUCAUUCUGCUCAAGCATT against DIO2 | inactive: -0.549
GGACAGUAAGACCAAGAUUTT against PKN1 | inactive: -0.753

Part of the list above in another layout.
GCCUUGAUCAAGUAACAGATT against PARD6B
  median seed-adjusted z-score: inactive: 0.315
AGAAUUUCCCUGACCUGGATT against CALY
  median seed-adjusted z-score: inactive: 0.216
GCAAACAAGUGAUAGUGAUTT against RBM11
  median seed-adjusted z-score: inactive: -0.0341
CAAAAGAUGCUCAUGCUUUTT against MRPL39
  median seed-adjusted z-score: inactive: 0.355

Next part

Sequence | median seed-adjusted z-score
GGAGAUGAACGGAUCCUUUTT against CHGA | inactive: -0.0235
GGCAAGUGCUUCACUCAAATT against ZNF665 | active: 1.13
GAAGUGCACGCGAAACAGATT against ATAD3C | inactive: -0.535
CGUCUGACUUCGCUAGCAATT against HOXD11 | inactive: -0.185
GCUCCUACCUGAUCGUGUUTT against SLC13A2 | inactive: 0.172
CGAUCACUUCCUACAGUCUTT against RGR | inactive: 0.217
CGGUACAGAUUAUCCCGAATT against B4GALT6 | inactive: 0.224
GGAAUGAGGUUACUUUUUATT against NDUFC2 | inactive: -0.0481
GUCUACAGCCUGUACAUCUTT against PISD | inactive: 0.231
CAGUCUAAACUACGAAAUATT against NUP153 | inactive: -0.847
GAACAGUGCUCGGGACUUUTT against CYP2C18 | inactive: 0.229
CCGGGAAAUUGAUUAUGCATT against SIN3B | inactive: 0.509
GAAGCUAACUUCUAUUAAATT against ARL5A | inactive: 0
GCCUUAUCGCUGCAUCUAUTT against LAIR1 | inactive: -0.0897
GACUGUUUAUUAGAGGAAUTT against PDE9A | inactive: 0.708
GCGAAAAGAUGUCAAAGAATT against GNAT2 | inactive: 0
CGAACGAAAGGAUACGGUATT against BAI2 | inactive: -0.114
AGACCGAUGUGAAUGUGCATT against DIRAS3 | inactive: -0.419
GAACCGCACACUUCAGAAATT against AATF | inactive: 0.182
GGCAAUUCAUUGAUAGCAATT against MYH2 | inactive: -0.73
GCACCUAAUGAAUAAACGATT against ELOVL6 | inactive: 0.742
CCUGAAUCCUUAGACUUAATT against PROX1 | inactive: -0.372
GUAUUUGAGUUACAACUGUTT against MBOAT2 | inactive: -0.282
